Experimental findings from PMC7862700 are described below.

Amino acid sequences for entries named in this document (tags omitted). A change or cut given only in a name is not applied to a line headed by its entry.
UniProt O43186: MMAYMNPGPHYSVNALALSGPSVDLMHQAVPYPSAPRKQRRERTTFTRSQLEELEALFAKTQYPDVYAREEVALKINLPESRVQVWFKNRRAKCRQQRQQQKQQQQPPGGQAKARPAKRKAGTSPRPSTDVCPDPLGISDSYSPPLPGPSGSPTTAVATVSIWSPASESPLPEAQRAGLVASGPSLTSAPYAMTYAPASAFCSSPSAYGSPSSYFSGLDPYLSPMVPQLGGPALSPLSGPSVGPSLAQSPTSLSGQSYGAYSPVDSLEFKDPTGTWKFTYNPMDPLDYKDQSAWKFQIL

Only a part is listed here, and it is no random draw. At the low end of the ranking the order means little.

Assay in all cases: DAPPL (digital affinity profiling via proximity ligation, sequencing)
Holding throughout (settings): 10 mM Tris-HCl pH 7.5, 50 mM NaCl, 1 mM DTT, 4% glycerol, room temperature, 30 min; GST-TFs on glutathione beads, 16-mer random dsDNA library, 0.1% …; high values mean tight binding; double strand, one strand shown; scale: fold enrichment (6-mer frequency, TF over GST control)

One assay addresses T1, FEV (UniProt Q99581).
T1 sequence: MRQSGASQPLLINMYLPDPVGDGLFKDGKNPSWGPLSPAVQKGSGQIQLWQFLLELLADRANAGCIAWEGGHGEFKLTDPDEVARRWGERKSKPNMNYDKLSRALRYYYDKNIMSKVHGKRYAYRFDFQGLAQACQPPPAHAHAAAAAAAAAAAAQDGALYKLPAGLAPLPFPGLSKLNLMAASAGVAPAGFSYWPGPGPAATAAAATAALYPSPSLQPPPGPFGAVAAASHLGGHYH

For the next assay, the target named is CRX (UniProt O43186).
Another assay addresses T2, ELF5 (UniProt Q9UKW6-2).
T2 sequence: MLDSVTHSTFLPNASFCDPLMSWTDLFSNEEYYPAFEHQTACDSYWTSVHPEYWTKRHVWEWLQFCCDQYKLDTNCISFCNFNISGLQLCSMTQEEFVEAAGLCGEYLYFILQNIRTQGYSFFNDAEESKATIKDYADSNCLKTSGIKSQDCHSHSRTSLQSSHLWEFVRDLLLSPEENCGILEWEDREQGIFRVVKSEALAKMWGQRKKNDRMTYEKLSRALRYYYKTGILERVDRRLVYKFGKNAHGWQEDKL

For the sequence GTCTGC, the binding signal in the assay with FEV amounted to 0.929; with CRX it was 0.643; with ELF5, 0.844.
For CGCATG, the binding signal is 0.615 with FEV, 0.562 in the assay with CRX and 0.638 with ELF5.
Turning to AGTGTG, the figures for the binding signal with FEV, with CRX and with ELF5 were 0.641, 0.554 and 0.697, respectively.
Regarding GTAAGG, the binding signal was determined as 0.755 with FEV, 0.679 in the assay with CRX and 0.978 with ELF5.
Consider GGGCCG, for which the binding signal turned out to be 0.606 with FEV, 0.426 in the assay with CRX and 0.572 with ELF5.
With GGGGCC, the values for the binding signal with FEV, with CRX and with ELF5 were 0.563, 0.394 and 0.522, respectively.
In the case of GGTGGC, the binding signal was found to be 0.784 with FEV, 0.594 with CRX and 0.68 with ELF5.
With GAACCG, the binding signal with FEV was determined as 0.857; in the assay with CRX, 0.466; in the assay with ELF5, 0.711.
On to CCAGTA, for which the binding signal with FEV is 0.677; with CRX, 0.727; with ELF5 it was 0.632.
GTCGCG: the binding signal stood at 0.641 in the assay with FEV, 0.475 with CRX and 0.663 with ELF5.
For the sequence GAACGT, the binding signal with FEV turned out to be 0.396; with CRX, 0.391; in the assay with ELF5 it was 0.394.
Regarding AGCGTA, the binding signal with FEV was determined as 0.887; with CRX it was 0.924; with ELF5 it was 0.977.
Regarding GAGGGC, the results for the binding signal with FEV, with CRX and with ELF5 were 0.594, 0.47 and 0.554, respectively.
For the sequence CCCAGT, the values for the binding signal with FEV, with CRX and with ELF5 were 0.654, 0.517 and 0.582, respectively.
For CGGGGT, the binding signal in the assay with FEV was determined as 0.551; with CRX, 0.488; in the assay with ELF5 it was 0.602.
Take TCAGGT: the results for the binding signal with FEV, with CRX and in the assay with ELF5 were 0.822, 0.866 and 0.792, respectively.
In the case of GACGGG, the values for the binding signal in the assay with FEV, in the assay with CRX and in the assay with ELF5 were 0.445, 0.339 and 0.459, respectively.
With TGGGAG, the values for the binding signal with FEV, with CRX and with ELF5 were 0.453, 0.385 and 0.416, respectively.
Consider TGGGTC, for which the binding signal came to 0.64 with FEV, 0.489 with CRX and 0.648 with ELF5.
Taken in the same sequence, the figures for GTGAGG were 0.245, 0.222 and 0.255.
In the case of GCGAGA, the binding signal worked out at 0.472 in the assay with FEV, 0.554 with CRX and 0.488 with ELF5.
Regarding ACGGTG, the binding signal with FEV was 0.504; with CRX it was 0.409; with ELF5, 0.508.
Consider GCGCAG, for which the binding signal with FEV amounted to 0.764; in the assay with CRX, 0.68; with ELF5 it was 0.712.
For the sequence GCTGTC, the binding signal was 0.87 with FEV, 0.747 in the assay with CRX and 0.882 with ELF5.
AGAGTA: the binding signal in the assay with FEV stood at 0.752; in the assay with CRX it was 0.766; in the assay with ELF5 it was 0.777.
Regarding AGCGTG, the binding signal was determined as 0.338 with FEV, 0.32 with CRX and 0.356 in the assay with ELF5.
As to TGAAGT, the binding signal with FEV was determined as 0.685; with CRX, 0.66; with ELF5, 0.704.
With AAGAGT, the binding signal in the assay with FEV amounted to 0.839; with CRX, 0.837; with ELF5, 0.884.
The corresponding values for GAGTAC are 0.527, 0.433 and 0.537.
Regarding AGCCTG, the binding signal with FEV was 0.887; with CRX, 0.922; with ELF5 it was 0.85.
As to ACTGAG, the binding signal was 0.751 with FEV, 0.718 with CRX and 0.656 with ELF5.
Turning to GGTGAA, the binding signal with FEV turned out to be 0.792; in the assay with CRX, 0.583; in the assay with ELF5 it was 0.73.
Regarding ACCCAG, the binding signal with FEV was found to be 0.687; in the assay with CRX, 0.642; with ELF5, 0.693.
Taken in the same sequence, the figures for ATCGGT were 0.658, 0.735 and 0.677.
Turning to GGGACA, the binding signal with FEV was 0.718; with CRX it was 0.441; with ELF5, 0.666.
GGGATC: the binding signal with FEV amounted to 0.567; with CRX, 0.875; with ELF5 it was 0.633.
Taken in the same sequence, the figures for GAAGAC were 0.837, 0.651 and 0.992.
With GGGAGT, the values for the binding signal with FEV, with CRX and in the assay with ELF5 were 0.225, 0.19 and 0.219, respectively.
Regarding ACGGGC, the binding signal turned out to be 0.826 with FEV, 0.645 with CRX and 0.758 with ELF5.
For the sequence AGAACG, the binding signal with FEV was 0.451; with CRX it was 0.464; with ELF5 it was 0.422.
The corresponding values for CCCGGG are 0.793, 0.644 and 0.803.
For GACGTC, the figures for the binding signal in the assay with FEV, in the assay with CRX and with ELF5 were 0.938, 0.57 and 0.867, respectively.
Take GGCACG: the binding signal in the assay with FEV was 0.839; with CRX, 0.629; with ELF5, 0.83.
Regarding GACGTA, the binding signal was found to be 0.767 with FEV, 0.586 with CRX and 0.71 with ELF5.
The corresponding values for GCCAGT are 0.305, 0.25 and 0.281.
For the sequence ACGGAC, the binding signal was 0.931 with FEV, 0.594 with CRX and 0.852 in the assay with ELF5.
Turning to AGCCCG, the binding signal in the assay with FEV came out at 0.9; in the assay with CRX it was 0.739; with ELF5, 0.867.
AGGCCG: the binding signal came to 0.54 with FEV, 0.44 with CRX and 0.449 in the assay with ELF5.
For GACTAG, the binding signal in the assay with FEV was determined as 0.725; in the assay with CRX, 0.824; in the assay with ELF5, 0.692.
For the sequence GTCGTG, the binding signal with FEV amounted to 0.388; with CRX, 0.278; with ELF5 it was 0.398.
Taken in the same sequence, the figures for CCCAGC were 0.863, 0.829 and 0.863.
GCGTGA: the binding signal amounted to 0.254 with FEV, 0.218 in the assay with CRX and 0.268 with ELF5.
The corresponding values for GACCGT are 0.412, 0.36 and 0.422.
For AATCGG, the binding signal with FEV was 0.558; with CRX it was 0.85; with ELF5, 0.542.
As for TGTGTA, the binding signal is 0.806 with FEV, 0.78 with CRX and 0.797 with ELF5.
On to CGCTGA, for which the figures for the binding signal with FEV, in the assay with CRX and with ELF5 were 0.841, 0.799 and 0.808, respectively.
The corresponding values for GAGTTT are 0.551, 0.555 and 0.612.
For the sequence GAGGGG, the binding signal worked out at 0.53 with FEV, 0.436 with CRX and 0.509 with ELF5.
CAGTGG: the binding signal in the assay with FEV came out at 0.477; with CRX it was 0.437; with ELF5, 0.477.
Consider GACCCG, for which the figures for the binding signal with FEV, in the assay with CRX and with ELF5 were 0.845, 0.594 and 0.86, respectively.
TCCGTG: the binding signal in the assay with FEV was 0.475; with CRX it was 0.365; in the assay with ELF5, 0.641.
In the case of AGGTTA, the figures for the binding signal with FEV, in the assay with CRX and in the assay with ELF5 were 0.708, 0.878 and 0.742, respectively.
Turning to TACCAG, the binding signal with FEV came out at 0.817; with CRX, 0.977; in the assay with ELF5, 0.838.
On to GGGTAG, for which the figures for the binding signal with FEV, with CRX and with ELF5 were 0.622, 0.505 and 0.653, respectively.
With AGAGGG, the binding signal in the assay with FEV worked out at 0.707; with CRX it was 0.694; in the assay with ELF5, 0.744.
Taken in the same sequence, the figures for GGGGGT were 0.524, 0.408 and 0.498.
CAGGTG: the binding signal in the assay with FEV amounted to 0.571; in the assay with CRX, 0.48; in the assay with ELF5, 0.544.
As to ACACGT, the results for the binding signal with FEV, with CRX and with ELF5 were 0.779, 0.663 and 0.752, respectively.
On to GACGGA, for which the values for the binding signal with FEV, with CRX and with ELF5 were 0.543, 0.405 and 0.57, respectively.
With GGCAAC, the binding signal amounted to 0.871 in the assay with FEV, 0.576 with CRX and 0.91 with ELF5.
As for TGAGAG, the figures for the binding signal with FEV, with CRX and with ELF5 were 0.555, 0.538 and 0.574, respectively.
For CGGAGG, the binding signal in the assay with FEV is 0.296; with CRX, 0.217; with ELF5, 0.276.
As for TCGGTC, the binding signal was 0.574 with FEV, 0.455 with CRX and 0.543 with ELF5.
Turning to TGGGGG, the results for the binding signal with FEV, in the assay with CRX and with ELF5 were 0.716, 0.655 and 0.726, respectively.
Taken in the same sequence, the figures for ACGGCG were 0.8, 0.68 and 0.779.
As to GGTTAG, the figures for the binding signal in the assay with FEV, with CRX and in the assay with ELF5 were 0.752, 0.723 and 0.735, respectively.
Consider ATCGGA, for which the binding signal was determined as 0.477 with FEV, 0.551 in the assay with CRX and 0.384 with ELF5.
Turning to ACTGTG, the binding signal with FEV stood at 0.485; with CRX, 0.395; with ELF5, 0.476.
Take GAGTTA: the binding signal with FEV was found to be 0.568; with CRX, 0.678; with ELF5 it was 0.534.
Consider GTGAGC, for which the binding signal was 0.408 with FEV, 0.324 with CRX and 0.353 with ELF5.
Turning to GAGACG, the binding signal with FEV is 0.324; with CRX, 0.261; with ELF5, 0.297.
Consider ACGTGG, for which the binding signal in the assay with FEV stood at 0.561; with CRX, 0.508; with ELF5, 0.537.
Consider CAGTGA, for which the binding signal in the assay with FEV is 0.337; with CRX it was 0.312; in the assay with ELF5, 0.319.
CTGGGA: the binding signal with FEV stood at 0.797; with CRX it was 0.842; with ELF5, 0.84.
CAGAGG: the binding signal in the assay with FEV came to 0.57; in the assay with CRX, 0.565; in the assay with ELF5, 0.602.
As for CAGTCC, the binding signal stood at 0.635 with FEV, 0.444 with CRX and 0.614 in the assay with ELF5.
As to CGAGTC, the binding signal came to 0.521 in the assay with FEV, 0.421 with CRX and 0.451 in the assay with ELF5.
With CAGGCT, the results for the binding signal with FEV, with CRX and in the assay with ELF5 were 0.798, 0.939 and 0.836, respectively.
Take AGAGTC: the binding signal with FEV was found to be 0.405; with CRX, 0.404; in the assay with ELF5 it was 0.433.
AAGTGA: the binding signal with FEV worked out at 0.643; with CRX it was 0.556; with ELF5, 0.669.
